Test results reported in PubChem BioAssay AID2551 (National Center for Advancing Translational Sciences (NCATS), 2010).
In all, about 310,000 compounds went through this assay and about 17,000 (5.5%) were called active. This list was built around the results that the source calls inconclusive (neither active nor inactive); the mix of calls is not that of the screen. Calls come from the whole dose curve; as a rule, active = well fitted inhibition curve with a large enough effect; inconclusive = small, poorly fitted or top-dose-only effect, or effect the other way; inactive = no such curve, though single readings can be large or run the other way. A potency beside an inconclusive call is a rough fit, not a confirmed value.

The chains behind the UniProt entries cited, without tags or fusion partners. Where a name states a change or a piece, a line headed by the entry shows the natural chain unless it says otherwise.
UniProt P51450: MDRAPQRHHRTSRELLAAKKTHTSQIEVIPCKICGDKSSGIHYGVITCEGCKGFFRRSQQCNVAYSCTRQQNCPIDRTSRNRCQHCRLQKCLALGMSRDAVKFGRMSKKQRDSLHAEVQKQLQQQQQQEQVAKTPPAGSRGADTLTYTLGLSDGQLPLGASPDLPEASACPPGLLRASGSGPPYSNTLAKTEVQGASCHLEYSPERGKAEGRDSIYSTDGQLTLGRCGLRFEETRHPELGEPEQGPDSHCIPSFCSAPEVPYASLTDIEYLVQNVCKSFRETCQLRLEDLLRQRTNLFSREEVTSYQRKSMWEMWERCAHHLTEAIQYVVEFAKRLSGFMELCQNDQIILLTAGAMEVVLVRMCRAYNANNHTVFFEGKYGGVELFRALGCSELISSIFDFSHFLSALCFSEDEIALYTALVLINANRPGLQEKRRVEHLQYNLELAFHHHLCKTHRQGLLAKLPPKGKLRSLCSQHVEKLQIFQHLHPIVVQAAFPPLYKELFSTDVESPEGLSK

Biological target: Nuclear receptor ROR-gamma (Mus musculus) (UniProt P51450)
Test: qHTS for inhibitors of ROR gamma transcriptional activity; note: nearly all actives have a fitted effect of over 60% in size
Conditions: Drosophila S2 Gal4-RORgamma UAS-luciferase reporter, 20 h; activity change, negative = inhibition: at 53.6 µM (top of the series)
Procedure, shortened: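 Schneider cells (Drosophila), stable Gal4 DBD–ROR gamma + UAS-luc; 1 hr cmpd preincubation; Cu2+ induction 700 uM final; 20 hr ambient; luminescence.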
% is set by controls: 0 for no effect and ±100 for the full control effect; potency is the fitted concentration of half-maximal effect.

SMILES	Potency	activity change, negative = inhibition
O=C(N/N=C/c1cccc(Oc2ccccc2)c1)c1ccncc1	inconclusive: 35.5 µM [inhibitor, single point]	–
COc1ccc(-n2nc3cc(C)c(NC(C)=O)cc3n2)cc1	inconclusive: 7.08 µM [inhibitor, full curve, poor fit]	–
C[C@@H](C(=O)NCC1CC1)[C@@H]1C[C@@]1(C)[C@@H](NC(=O)OCc1ccccc1)c1ccccc1	inconclusive: 31.6 µM [activator, single point]	–
COc1ccc(CC(=O)Nc2sc3c(c2C(N)=O)CCCC3)cc1	inconclusive: 12.6 µM [activator, single point]	–
O=S(=O)(c1cccc2nsnc12)N1CCN(C/C=C\c2ccccc2)CC1	inconclusive: 2.82 µM [activator, partial curve, poor fit]	–
Cc1cc2nc(CCN(C(=S)NCC3CCCO3)C3CCCC3)[nH]c2cc1C (centres undefined)	active: 12.6 µM	–
Cc1cccc(NCc2nnc(-c3ccccc3)o2)c1C	inconclusive: 12.6 µM [activator, partial curve]	–
CCOC(=O)C1(CCOC)CCN(Cc2cnc(-c3cccc(C)c3)nc2)CC1	inconclusive: 17.8 µM [activator, single point]	–
O=C(CC1NCCc2ccccc21)Nc1ccc(Oc2ccccc2)cc1 (centres undefined)	inconclusive: 20 µM [inhibitor, single point]	–
CCOc1ccc2nc(/N=C/c3c(C)[nH]n(-c4ccc(C)cc4)c3=O)sc2c1	inconclusive: 35.5 µM [inhibitor, single point]	–
S=C(NCc1ccc(Cl)cc1)NCc1ccccn1	active: 15.8 µM	–
COc1ccccc1N1CCN(Cc2nc(N)nc(Nc3ccc(C)c(Cl)c3)n2)CC1	active: 11.2 µM	–
CC(=O)N1CCN(CC(=O)Nc2c(Cl)cc(Cl)cc2Cl)CC1	–	inactive: -1.38%
COc1ccc(/C=C2\CCCC3C2=NC(=S)NC3c2ccc(OC)cc2)cc1 (centres undefined)	active: 6.31 µM	–
FC(F)Oc1ccccc1NC(=S)Nc1cccc(Cl)c1Cl	inconclusive: 22.4 µM [inhibitor, single point]	–
COc1cc(O)cc2cc3c(c(O)c12)C(=O)CC(C)(O)O3 (centres undefined)	–	inactive: -2.68%
O=C1N/C(=C\c2ccc(O)cc2)C(=O)c2ccccc21	inconclusive: 35.5 µM [inhibitor, single point]	–
O=C(CSc1nnnn1-c1ccc2c(c1)OCCO2)Nc1nc2c(s1)CCCC2	inconclusive: 14.1 µM [activator, single point]	–
CC1CCc2c(c3ccccc3n2C(=O)CCl)C1 (centres undefined)	inconclusive: 20 µM [inhibitor, single point]	–

Ordered by number of heavy atoms (ascending): three of the compounds above
SMILES	Potency	activity change, negative = inhibition
CC1CCc2c(c3ccccc3n2C(=O)CCl)C1 (centres undefined)	inconclusive: 20 µM [inhibitor, single point]	–
Cc1cc2nc(CCN(C(=S)NCC3CCCO3)C3CCCC3)[nH]c2cc1C (centres undefined)	active: 12.6 µM	–
C[C@@H](C(=O)NCC1CC1)[C@@H]1C[C@@]1(C)[C@@H](NC(=O)OCc1ccccc1)c1ccccc1	inconclusive: 31.6 µM [activator, single point]	–
